For at least one compound, name, drawing or mass did not settle the structure.
How the values were obtained:
[1] = system: primary human dermal fibroblasts (HDF); test: Fibroblast-derived matrix (FDM) formation assay (3D) with wound exudate; assay type: cell-based; settings: FIG. 5; WE of patient #78 (diabetes, immunosuppression after kidney transplantation)
Description: HDF cells were seeded at 5000 cells/well on day −3 into 96-well tissue culture plates (1250 cells/well for 384-well plates), which had been pre-coated for 1 hour at 37° C. with 0.2% gelatin solution (Sigma). When the cells reached confluence (=day 0), a matrix promoting supplement (vitamin C: 2-phospho-L-ascorbic acid trisodium salt, 100 μg/ml; Sigma) was added together with test samples containing PDGF-BB, TGF-ß1 or graded concentrations of compounds −/+WE as described for the HDF proliferation assay. After 4 days, medium was replaced by fresh vitamin C—and stimulus—as well as compound-containing medium, maintaining the conditions initiated on day 0. TGF-ß1 and PDGF-BB were included as positive controls to promote FDM formation and cell growth, respectively. After a total incubation time of 8 days, FDM production was measured in fixed cultures via SRB staining and evaluated as described above. In some cases, the experiment was stopped and evaluated already on day 4.
Low molecular weight compounds (see list in Table 1) were dissolved in DMSO (Bioreagent for cell culture, Sigma) at 10 mM or 100 mM and diluted at least 1:1000 in medium for cellular assays (final DMSO concentration ≤0.1%).
Cells were incubated with compounds for 72 hours in proliferation assays and up to 8 days for FDM assay (refreshed after 4 days). […]

[2] = system: primary human dermal fibroblasts (HDF); test: Primary human dermal fibroblast (HDF) proliferation assay (2D) with or without wound exudate; assay type: cell-based
Description: Primary human dermal fibroblasts (HDF) were purchased from CELLnTEC, Bern. They were routinely grown in Dulbecco's modified Eagle's medium (DMEM) containing 10% FCS, 2 mM glutamine, and 100 U/ml penicillin/100 μg/ml streptomycin. Media, antibiotics, and glutamine were bought from Lonza. The cells were used at passage 5-15. Cells were trypsinized and seeded at 5000 cells/well in 200 μl into the inner wells of 96-well plates. The outer wells were loaded with sterile water. The cells were allowed to adhere overnight and then incubated for 72 hours at 37° C. under the following conditions: graded compound concentrations or 20 ng/ml PDGF-BB (Tonbo Biosciences) in the absence or presence of different dilutions of sterile-filtered WE in medium. For control samples, 200 μl medium was added instead of specific stimuli. […]
Total cellular protein was determined as a measure of cell number by staining the fixed cells with sulforhodamine B (SRB, Sigma). […] The average absorbance of the sample representing the day 1 starting cell number (for 96-well plates) was subtracted from the absorbance values of the WE-treated cells.
All experiments were carried out in triplicate for each sample and concentration, and means±standard deviation (SD) were used for the evaluation of the experiment. Results are expressed as percentage of control values for unstimulated cells. […]

Row | Structure (SMILES) | formation of fibroblast-derived matrix, veliparib and glucocorticoids combined [1] | 2D fibroblast culture, enhancement of PARP inhibitor compound effects by co-agent ([2]; FIG. 12, WE from patient #78, dexamethasone 3 nM, vitamin C 100 μg/ml) | 2D fibroblast culture, enhancement of PARP inhibitor compound effects by co-agent ([2]; FIG. 13, WE from patient #43)
1 | CC(=O)O[C@]1(C(C)=O)CC[C@H]2[C@@H]3C[C@H](C)C4=CC(=O)CC[C@]4(C)[C@H]3CC[C@@]21C [MED] | enhance the effect of veliparib on rescuing FDM formation after WE treatment |  | 
2 | C[C@@H]1C[C@H]2[C@@H]3CCC4=CC(=O)C=C[C@]4(C)[C@@]3(F)[C@@H](O)C[C@]2(C)[C@@]1(O)C(=O)CO [dexamethasone] | enhance the effect of veliparib on rescuing FDM formation after WE treatment | synergistically enhance the PARP inhibitor compound effects | synergistically enhance the PARP inhibitor compound effects

Reference: patent US11638709B2, “Rucaparib, Talazoparib, Veliparib, Olaparib and AZD 2461 for treating impaired skin wound healing” (AKRIBES BIOMEDICAL GMBH, priority 2017, dated 2023)
